For at least one compound, name, drawing or mass did not settle the structure.
Key:
[1] = Solubility of oily component solid at 25° C. and crystallization test (stearyl alcohol); format: physicochemical; set-up: key: excellent: “Excellent” indicates uniform dissolution; “good” indicates dispersion; “poor” indicates separation; settings: Stearyl alcohol:silicone mass ratio 1:9, heated at 105° C. for 20 minutes, visual observation
Protocol: (§1) Oily components being solid at 25° C. and silicones weighed at a mass ratio of 1:9 were heated at 105° C. for 20 minutes to observe the dissolution state. Then, each heated mixture solution was placed in an aluminum cup, allowed to stand at 25° C. for 2 days, and solidified. The penetration score of the solid was measured with a rheometer. The dissolution states according to the visual observation during the heating were shown as follows. “Excellent” indicates uniform dissolution, “good” indicates dispersion, and “poor” indicates separation.
(§2) Moreover, in the rheometer measurement, an automatic cone-penetration measurement test apparatus RPM-101 (manufactured by RIGOSHA CO., LTD.) was used, a ¼ cone was set, and a penetration score after 5 seconds was measured five times. […] A larger value means a softer material.

[2] = Solubility of oily component solid at 25° C. and crystallization test (polyethylene); format: physicochemical; set-up: key: excellent: “Excellent” indicates uniform dissolution; “good” indicates dispersion; “poor” indicates separation; settings: Polyethylene:silicone mass ratio 1:9, heated at 105° C. for 20 minutes, visual observation
Protocol: as §1, §2

[3] = 25° C.; known value given for comparison; cited from earlier work
[4] = Solubility test of ethylhexyl methoxycinnamate in silicones; format: physicochemical; set-up: key: “good” indicates dissolution; “poor” indicates separation; settings: Ratio of OMC:Sx 1:1 (mass); shaken 24 hours, observed after 12 days at room temperature
Protocol: Ethylhexyl methoxycinnamate (sometimes referred to as OMC) and each silicone (sometimes referred to as Sx) weighed at a mass ratio shown in Table 1 were shaken and mixed at room temperature for 24 hours. After 12 days at room temperature, the dissolution state was observed. For each dissolution state, “good” indicates dissolution, and “poor” indicates separation.

For `C[Si]1(C)O[Si](C)(C)O[Si](C)(C)O[Si](C)(C)O[Si](C)(C)O1` [D5:KF-995, decamethylpentasiloxane], the dissolution state [1] is given as “excellent”, the dissolution state [2] is given as “good” and the viscosity [3] is given as 4 mm^2/s. For the same molecule, the dissolution state [4] was “poor”.
